Values from PubChem BioAssay AID1259425 (University of Nebraska Medical Center, 2018)
The whole screen tested about 14,000 reagents; this is a random part of them. Not all columns of the deposit are shown. Not stated in the record: the time to read-out.

- Aim: 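Find knockdowns that reproduce the gene expression pattern seen when KSR1 is lost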 (primary screen)
- Cell system: HCT116 human colon cancer cells
- Reagents: siRNA pool against human genes, 50 nM siRNA
- Detection: 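After 50 nM siRNA pool, branched-DNA assay measures six marker transcripts per well, minus blank, normalised to the geometric mean of two housekeeping transcripts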
- Scale: BNIP3L mRNA: higher = more BNIP3L transcript after knockdown; NDRG1 mRNA: higher = more NDRG1 transcript after knockdown

Against CYP2A7 the deposit lists BNIP3L mRNA, set 1 = 0.0757; NDRG1 mRNA, set 1 = 0.125.
STK38L scored BNIP3L mRNA, set 1 = 0.125; NDRG1 mRNA, set 1 = 0.103.
Knock-down of SMCP gave: BNIP3L mRNA, set 1 = 0.111; NDRG1 mRNA, set 1 = 0.196.
After knock-down of PUF60, the record shows BNIP3L mRNA, set 1 = 0.115; NDRG1 mRNA, set 1 = 0.185.

Reformatted: entries from further up
{"Gene": "CYP2A7", "BNIP3L mRNA, set 1": 0.0757, "NDRG1 mRNA, set 1": 0.125}
{"Gene": "STK38L", "BNIP3L mRNA, set 1": 0.125, "NDRG1 mRNA, set 1": 0.103}

More records:
Knock-down of LINC00869 gave: BNIP3L mRNA, set 1 = 0.184; NDRG1 mRNA, set 1 = 0.495.
With knock-down of DTWD1 the results were BNIP3L mRNA, set 1 = 0.126; NDRG1 mRNA, set 1 = 0.349.
For NR4A3 the deposit lists BNIP3L mRNA, set 1 = 0.115; NDRG1 mRNA, set 1 = 0.275.
Against SULT1C2, the values are BNIP3L mRNA, set 1 = 0.063; NDRG1 mRNA, set 1 = 0.115.
Knock-down of MTNAP1 gave: BNIP3L mRNA, set 1 = 0.137; NDRG1 mRNA, set 1 = 0.257.
For SNRPB, the values are BNIP3L mRNA, set 1 = 0.158; NDRG1 mRNA, set 1 = 0.516.
For LDB1 the deposit lists BNIP3L mRNA, set 1 = 0.0599; NDRG1 mRNA, set 1 = 0.0755.
OLR1 showed BNIP3L mRNA, set 1 = 0.0644; NDRG1 mRNA, set 1 = 0.0808.
